Source: paper PMC5957528, “Boosting ATM activity alleviates aging and extends lifespan in a mouse model of progeria” (eLife, 2018)
Results are given in words; binding and its absence hold for the method and conditions named. For part of these data: Binding seen in cells or lysates may run through a third protein. Some results given as binding are weak or reduced against the parent protein; the word gives no strength. For part of these data: Sequences can lack the tags named with a protein.

Protein sequences, listed by entry. Tags and fused reporters are not part of them. Lines headed by an entry give the natural chain unless they say otherwise; changes in a name come on top.
UniProt Q8N6T7: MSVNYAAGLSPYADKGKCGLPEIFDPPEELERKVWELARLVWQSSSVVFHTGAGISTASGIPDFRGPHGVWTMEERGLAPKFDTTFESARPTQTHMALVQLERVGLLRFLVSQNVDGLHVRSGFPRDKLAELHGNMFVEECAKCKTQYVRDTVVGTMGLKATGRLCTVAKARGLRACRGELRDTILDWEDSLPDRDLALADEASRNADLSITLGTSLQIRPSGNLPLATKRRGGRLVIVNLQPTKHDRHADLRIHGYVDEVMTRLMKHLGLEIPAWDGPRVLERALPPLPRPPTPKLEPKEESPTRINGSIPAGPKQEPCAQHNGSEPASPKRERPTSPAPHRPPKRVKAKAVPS
UniProt Q00987: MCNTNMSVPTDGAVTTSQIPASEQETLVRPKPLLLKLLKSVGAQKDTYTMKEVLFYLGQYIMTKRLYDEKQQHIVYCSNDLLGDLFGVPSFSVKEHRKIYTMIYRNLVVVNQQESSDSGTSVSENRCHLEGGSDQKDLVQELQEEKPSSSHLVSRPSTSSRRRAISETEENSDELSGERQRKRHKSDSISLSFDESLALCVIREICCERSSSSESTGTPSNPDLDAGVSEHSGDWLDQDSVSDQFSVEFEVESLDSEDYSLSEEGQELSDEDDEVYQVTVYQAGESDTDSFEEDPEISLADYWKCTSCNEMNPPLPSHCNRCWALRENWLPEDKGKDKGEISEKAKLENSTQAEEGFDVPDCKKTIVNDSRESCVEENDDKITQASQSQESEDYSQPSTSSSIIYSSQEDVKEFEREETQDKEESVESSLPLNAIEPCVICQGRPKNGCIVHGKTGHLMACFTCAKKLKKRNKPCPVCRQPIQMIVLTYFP

What was measured:
Flag-SIRT6 (human) = Flag-SIRT6 (human) (UniProt Q8N6T7); assay: co-IP; anti-Flag immunoprecipitates from HEK293 cells expressing Flag-SIRT6 or Flag-SIRT6 S112A, blotted for MDM2; also WT and ATM KO HEK293 cells
Flag-SIRT6 S112A (human) = Flag-SIRT6 S112A (human) (UniProt Q8N6T7); assay: as above
[1] = target: T1, GST-ATM-1 (residues 1–250) (human) (UniProt Q13315); assay: pull-down; GST pull-down: bacterially expressed 6 × His SIRT6 incubated separately with GST-ATM fragments in 150 mM NaCl, 20 mM Tris-HCl pH 7.5, 5 mM MgCl2, 0.2 mM EDTA, 10% glycerol, 0.2% NP-40; Glutathione Sepharose; washed with TEN buffer (300 mM NaCl); both purified
T1 sequence: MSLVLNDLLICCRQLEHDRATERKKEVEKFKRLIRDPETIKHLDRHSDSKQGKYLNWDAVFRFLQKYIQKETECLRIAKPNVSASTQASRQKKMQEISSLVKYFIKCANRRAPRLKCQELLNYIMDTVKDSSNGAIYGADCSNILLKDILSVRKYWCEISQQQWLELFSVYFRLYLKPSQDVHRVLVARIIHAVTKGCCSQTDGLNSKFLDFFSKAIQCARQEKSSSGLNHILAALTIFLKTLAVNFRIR

MDM2 (from UniProt Q00987 1-491) was tested, and the binding (Flag-SIRT6 (human)) was “binds” and the binding (Flag-SIRT6 S112A (human)) was “binds”.

In the case of His-SIRT6 (from UniProt Q8N6T7 1-355), the binding [1] was “binds weakly”.
